Laboratory results reported in article PMC9808371, “Extracellular Galectin 4 Drives Immune Evasion and Promotes T-cell Apoptosis in Pancreatic Cancer” (Cancer Immunology Research, 2022).
Results are given in words; binding and its absence hold for the method and conditions named. Some results given as binding are weak or reduced against the parent protein; the word gives no strength.

How the values were obtained:
[1] = target: T1, mouse CD3ε/δ heterodimer (mouse) (UniProt P22646+P04235); experiment: SPR; CD3 heterodimers amine-coupled at pH 4 to CM5 chips (mouse CD3ε/δ 3,900 RU, human CD3ε/δ 9,800 RU, human CD3ε/γ 8,900 RU); gal 4 as analyte, 2-fold dilutions 16 to 0.5 μmol/L, 120 s association, 120 s dissociation; 25°C; 10 mmol/L phosphate pH 7.4, 140 mmol/L NaCl, 0.27 mmol/L KCl, 0.05% Tween 20; Biacore T-200; both purified
T1 sequence 1: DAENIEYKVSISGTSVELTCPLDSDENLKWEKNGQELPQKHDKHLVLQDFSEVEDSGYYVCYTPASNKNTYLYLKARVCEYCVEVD
T1 sequence 2: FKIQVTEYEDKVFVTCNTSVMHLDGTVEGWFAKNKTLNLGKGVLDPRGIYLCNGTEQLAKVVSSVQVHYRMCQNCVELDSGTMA

[2] = target: T2, human recombinant CD3ε/γ heterodimer (human, UniProt P07766 23-126; P09693 23-116); experiment: as above
T2 chain 1: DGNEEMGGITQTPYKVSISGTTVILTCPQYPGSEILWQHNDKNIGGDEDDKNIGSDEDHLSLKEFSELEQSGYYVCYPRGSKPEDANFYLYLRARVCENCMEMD
T2 chain 2: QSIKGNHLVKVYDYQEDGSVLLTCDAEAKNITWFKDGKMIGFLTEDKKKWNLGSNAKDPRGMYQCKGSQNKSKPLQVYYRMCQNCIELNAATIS

binding [1]: binds
binding [2]: binds
B1: human recombinant galectin 4 (natural protein, UniProt P56470 1-323, looked up)
chain: MAYVPAPGYQPTYNPTLPYYQPIPGGLNVGMSVYIQGVASEHMKRFFVNFVVGQDPGSDVAFHFNPRFDGWDKVVFNTLQGGKWGSEERKRSMPFKKGAAFELVFIVLAEHYKVVVNGNPFYEYGHRLPLQMVTHLQVDGDLQLQSINFIGGQPLRPQGPPMMPPYPGPGHCHQQLNSLPTMEGPPTFNPPVPYFGRLQGGLTARRTIIIKGYVPPTGKSFAINFKVGSSGDIALHINPRMGNGTVVRNSLLNGSWGSEEKKITHNPFGPGQFFDLSIRCGLDRFKVYANGQHLFDFAHRLSAFQRVDTLEIQGDVTLSYVQI
notes: galectin 4 (LGALS4), Homo sapiens, cDNA NM_006149.4 recloned from pcDNA3.1-C-(k)DYK into pET-His1a (NcoI + Acc65I); The Hisx6-TEV tag was removed before use; also called gal 4; hgal 4; source: E. coli Rosetta (DE3), purified (NiNTA, tag removal with TEV protease, second NiNTA run); not shown: His6, N-terminal, cleaved
